Our source for the binding values is article doi:10.1101/2025.06.01.657323.

In the assay the target is T1, Wnt11 (neonatal mouse heart) (mouse (endogenous in neonatal mouse heart)) (UniProt P48615).
T1 sequence: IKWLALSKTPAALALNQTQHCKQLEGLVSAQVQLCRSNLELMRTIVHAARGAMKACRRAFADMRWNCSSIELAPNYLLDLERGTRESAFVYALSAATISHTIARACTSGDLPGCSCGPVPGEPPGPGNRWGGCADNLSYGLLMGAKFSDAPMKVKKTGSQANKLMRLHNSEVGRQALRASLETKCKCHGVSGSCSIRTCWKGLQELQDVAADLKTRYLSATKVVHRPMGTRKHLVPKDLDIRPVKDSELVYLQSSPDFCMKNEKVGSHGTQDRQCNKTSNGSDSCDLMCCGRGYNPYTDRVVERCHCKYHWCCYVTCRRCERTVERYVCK
In words: co-IP.

Results are given in words; binding and its absence hold for the method and conditions named. In cells and extracts the contact can be indirect. Some binding calls cover weakened binding; strength is not graded here.

B1: Frizzled 4 (neonatal mouse heart) (receptor, UniProt Q61088 37-537)
chain: FGDEEERRCDPIRIAMCQNLGYNVTKMPNLVGHELQTDAELQLTTFTPLIQYGCSSQLQFFLCSVYVPMCTEKINIPIGPCGGMCLSVKRRCEPVLREFGFAWPDTLNCSKFPPQNDHNHMCMEGPGDEEVPLPHKTPIQPGEECHSVGSNSDQYIWVKRSLNCVLKCGYDAGLYSRSAKEFTDIWMAVWASLCFISTTFTVLTFLIDSSRFSYPERPIIFLSMCYNIYSIAYIVRLTVGRERISCDFEEAAEPVLIQEGLKNTGCAIIFLLMYFFGMASSIWWVILTLTWFLAAGLKWGHEAIEMHSSYFHIAAWAIPAVKTIVILIMRLVDADELTGLCYVGNQNLDALTGFVVAPLFTYLVIGTLFIAAGLVALFKIRSNLQKDGTKTDKLERLMVKIGVFSVLYTVPATCVIACYFYEISNWALFRYSADDSNMAVEMLKIFMSLLVGITSGMWIWSAKTLHTWQKCSNRLVNSGKVKREKRGNGWVKPGKGNETVV
Consider B1, for which the binding result is “binds”.
